Source: paper PMC6683157

Test system: Csm2 (wild type) + Psy3 (wild type)
Assay: EMSA
Conditions: U32 of strand 2 = dU, EMSA: 25 mM Tris-HCl pH 8.0, 50 mM NaCl, 1 mM DTT, 100 ug/mL BSA, 5% glycerol, 25 C, recombinant protein, protein details: N-terminal 6xHis-TEV, label: 3' Cy3 on X01

GACGCTGCCGAATTCTACCAGTGCCTTGCTAGGACATCTTTGCCCACCTGCAGGTTCACCC / ATCGATAGTCGGATCCTCTAGACAGCTCCATUTAGCAAGGCACTGGTAGAATTCGGCAGCGT [Cy3 double-flap (X01/X04)]
binding result: binds

GACGCTGCCGAATTCTACCAGTGCCTTGCTAGGACATCTTTGCCCACCTGCAGGTTCACCC / ATCGATAGTCGGATCCTCTAGACAGCTCCATUTAGCAAGGCACTGGTAGAATTCGGCAGCGT / ATGGAGCTGTCTAGAGGATCCGACTATCGA [Cy3 3' flap (X01/X04/DS3)]
binding result (similar to double-flap): binds

GACGCTGCCGAATTCTACCAGTGCCTTGCTAGGACATCTTTGCCCACCTGCAGGTTCACCC / ATCGATAGTCGGATCCTCTAGACAGCTCCATUTAGCAAGGCACTGGTAGAATTCGGCAGCGT / TGGGTGAACCTGCAGGTGGGCAAAGATGTCC [Cy3 5' flap (X01/X04/DS2)]
binding result (similar to double-flap): binds

GACGCTGCCGAATTCTACCAGTGCCTTGCTAGGACATCTTTGCCCACCTGCAGGTTCACCC / ATCGATAGTCGGATCCTCTAGACAGCTCCATUTAGCAAGGCACTGGTAGAATTCGGCAGCGT / TGGGTGAACCTGCAGGTGGGCAAAGATGTCC / ATGGAGCTGTCTAGAGGATCCGACTATCGA [Cy3 static replication fork (X01/X04/DS2/DS3)]
binding result (decreased affinity vs flaps): binds more weakly

The exact form of at least one protein or probe is not confirmed. A weaker result is weaker than the reference pair of the same experiment.
